# In all, about 1,400 compounds went through this assay and about 30 (2%) were called active. Roughly 15% stayed inconclusive and do not appear here. The call rests on the fitted dose curve; in most records, active means well fitted inhibition curve with a large enough effect; inconclusive means small, poorly fitted or top-dose-only effect; inactive means flat fitted curve, though single readings scatter. Some of the results follow.
# Assay: Firefly Luciferase Counterscreen for Inhibitors of ATXN expression
# Conditions: luminescence; series mostly up to 57.5 µM; activity change, negative = inhibition: at the top concentration
# Method in brief: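 Recombinant firefly luciferase at 10 nM final in 50 mM Tris pH 7.5, 10 mM MgCl2, 0.05% BSA, 0.01% Tween20 with substrate; compounds up to 57 uM final, 10 min room temperature, end-point luminescence. Buffer-only wells define 100% inhibition.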
# On the % scale 0 is the no-effect control and ±100 the full control effect.
row,Compound,"activity change, negative = inhibition"
1,NNc1ncnc2scc(-c3ccc(Cl)cc3)c12,inactive: -3.67%
2,COc1ccccc1-c1cc(NC=O)c2ncc(-c3ccc(F)cc3)n2c1,inactive: -1.97%
3,CC1CCC(CN2C(Nc3ccccc3)=NC[C@@H]2Cc2ccccc2)CC1 (stereo partly specified),inactive: 0.876%
4,O=c1cc(-c2ccncc2)oc2c1ccc1ccccc12,inactive: -9.69%
5,Cc1cc(SCC(=O)NN)c2cc(Br)ccc2n1,inactive: -5.09%
6,O=C(CNC(=O)c1ccccc1Br)N/N=C/c1ccccc1O,inactive: -5.02%
7,Cc1cccc(NC(=O)c2ccc(S(=O)(=O)N(C)c3ccccc3)cc2)n1,inactive: -14.2%
8,COc1cc2nc(CN(C)Cc3ccc(SC)cc3)[nH]c(=O)c2cc1OC,inactive: -1.17%
9,Cc1ccc(N(C)S(=O)(=O)c2cccc(C(=O)OCC(=O)c3c(N)n(C)c(=O)n(C)c3=O)c2)cc1,inactive: 0.56%
10,Cc1ccc(S(=O)(=O)c2nc(NCc3ccc4c(c3)OCO4)sc2Cl)cc1,inactive: -12%
11,O=C(N/N=C\c1c(O)ccc2ccccc12)c1ccc(S(=O)(=O)N2CCCCC2)cc1,inactive: -3.32%
12,COc1ccc(C(=O)NCC(=O)N/N=C/c2ccc([N+](=O)[O-])s2)cc1OC,inactive: -3.6%
13,O=C(NN=Cc1ccccc1O)c1cccc([N+](=O)[O-])c1,inactive: -1.53%
14,Cc1ccc(F)cc1-c1cc2nc(NCCCN(C)C)n(C)c(=O)c2s1,inactive: 4.86%
15,CC(O)CNCCNCc1c(OCc2ccccc2)ccc2ccccc12 (stereo unspecified),inactive: 1.89%
16,Cc1cc(NCc2ccccn2)n2nc(C)c(-c3ccc(Cl)cc3)c2n1,inactive: -5.83%
17,O=C(CSc1nc2ncc(Br)cc2[nH]1)Nc1ccccc1-c1ccccc1,inactive: -15.3%
18,c1ccc(CN=C(NCc2ccccc2)NCc2ccccc2)cc1,inactive: 4.1%
19,CC(=O)Nc1ccc(N(CC(O)Cn2c3ccccc3c3ccccc32)S(=O)(=O)c2ccc(C)cc2)cc1 (stereo unspecified),inactive: 1.22%
20,CCN1CCN(CCCNC(=O)c2ccc(/C=C3/Sc4ccccc4N(Cc4ccccc4F)C3=O)cc2)CC1,inactive: -17.5%
21,CCCCC(=O)NC(c1ccccc1)c1ccc2cccnc2c1O (stereo unspecified),inactive: 0.103%
22,Cc1[nH]c(=O)c(C(=O)/C=C/c2ccccc2)c2c1CCCC2,inactive: 1.46%
23,COc1ccc(-c2nc(NC(=O)C3CC(=O)N(c4ccc5c(c4)OCCO5)C3)sc2C)cc1 (stereo unspecified),inactive: -10.4%
24,C=CCNc1oc(-c2ccc(Cl)cc2)nc1C#N,inactive: 2.23%
25,CCOc1ccc(OCC)c(NC(=O)Nc2ccc3c(c2)N(C)C(=O)CS3)c1,inactive: -10.2%
26,CC1C(=O)C(C)C(c2cc(Br)ccc2O)NC1c1cc(Br)ccc1O (stereo unspecified),inactive: -3.17%

row,Compound,"activity change, negative = inhibition"
1,C=CCc1ccccc1OCC(O)CN1CCN(CCN2C(=O)c3cccc4cccc(c34)C2=O)CC1 (stereo unspecified),inactive: -1.49%
2,CC(=O)Oc1c(Br)cc(N(C(C)=O)S(=O)(=O)c2ccccc2)c2ccccc12,inactive: -17.5%
3,CNC(=O)c1sc(N2N=C3/C(=C/c4ccccc4)CCCC3C2c2ccccc2)nc1C (stereo unspecified),inactive: -2.34%
4,O=C(Nc1cccc(-c2cccc(Cl)c2)c1)C1CCN(Cc2ccccn2)CC1,inactive: -8.36%
5,Cc1cc(N/N=C\c2ccc(Br)cc2)nc(-n2nc(C)cc2C)n1,inactive: -1.82%
6,CC1Sc2ccc(S(=O)(=O)CCC(=O)N3CCN(c4cccc(Cl)c4)CC3)cc2NC1=O (stereo unspecified),inactive: -1.49%
7,CCC(=O)NC(c1ccc(Cl)cc1Cl)c1ccc2cccnc2c1O (stereo unspecified),inactive: -9.67%
8,Cc1ccc(NS(=O)(=O)c2ccc(NC(=O)C(C)Sc3ccc(Cl)cc3)cc2)c(C)c1 (stereo unspecified),inactive: -6.61%
9,CCOC(=O)c1c(NC(=O)COC(=O)Cn2cnc3ccccc32)sc(C)c1C,inactive: -3.67%
10,CCC(=O)OC1(C(C)=O)CCC2C3CCC4=CC(=O)CCC4(C)C3CCC21C (stereo unspecified),inactive: 5.01%
11,O=C(Nc1ccccc1Cl)N1CCCN(c2nc(-c3ccccc3)ns2)CC1,inactive: -6.35%
12,O=C(Nc1nc(-c2ccccn2)cs1)c1ccc(F)c(S(=O)(=O)N2CCOCC2)c1,inactive: -19.5%
13,COc1ccc(C2CC(c3cccc(Br)c3)=NN2c2ccc(S(N)(=O)=O)cc2)cc1 (stereo unspecified),inactive: -5.04%
14,CCCOCc1ccc(O)c2ncccc12,inactive: 0.895%
15,CC1CCN(Cc2c(C(=O)N/N=C/c3ccccc3O)nnn2-c2nonc2N)CC1,inactive: 1.7%
16,COc1ccccc1NCC(=O)N/N=C/c1c(O)ccc2ccccc12,inactive: -4.67%
17,CC(=O)Nc1cccc(-c2ccnc3c2CC(C)(C(=O)Nc2cccc(Oc4ccccc4)c2)O3)c1 (stereo unspecified),inactive: -1.45%
18,O=C(NNC(=O)c1cnccn1)c1ccc(Cl)c(Cl)c1,inactive: -13.3%
19,CCCc1nc2c(c(=O)c3ccccc3n2C)c(=O)n1C1CCCCCC1,inactive: 1.5%
20,CS/C(=C\[N+](=O)[O-])Nc1ccc(OC(F)(F)F)cc1,inactive: -12.1%
21,CCN1CCN(C(c2ccc(C(F)(F)F)cc2)c2ccc3cccnc3c2O)CC1 (stereo unspecified),inactive: -0.327%
22,O=C(CSc1nnnn1-c1ccccc1)Nc1nsc(-c2ccccc2)n1,inactive: -1.47%
23,O=C(Nc1nc(NC(=O)c2ccco2)n(-c2ccccc2)n1)c1ccccc1,inactive: 3.47%
24,Cc1cc(-c2ccccc2)n(-c2cc(N/N=C/c3ccccc3O)ncn2)n1,inactive: 1.36%
25,CN1CCN(c2nc(-c3ccccn3)nc3ccccc23)CC1,inactive: -0.396%

# Molecules listed so far containing a CF3 group:
row,Compound,"activity change, negative = inhibition"
20,CS/C(=C\[N+](=O)[O-])Nc1ccc(OC(F)(F)F)cc1,inactive: -12.1%
21,CCN1CCN(C(c2ccc(C(F)(F)F)cc2)c2ccc3cccnc3c2O)CC1 (stereo unspecified),inactive: -0.327%
